Assay results from US10729659B2, “Nanogel-mediated drug delivery” (The Cleveland Clinic Foundation, priority 2012, dated 2020).
Some results were stated once for a whole list of compounds, not compound by compound.

Test system: p21
Assay: RT-PCR analysis of p21 mRNA
Format: cell-based, human
Settings: MCF-7/Adr; 48 h

Nc1ncn([C@H]2C[C@H](O)[C@@H](CO)O2)c(=O)n1 [DAC, 5-aza-2′-deoxycytidine]
Increase in expression of p21 (RT-PCR): > 4 fold
